# In PubChem BioAssay AID2685 (National Center for Advancing Translational Sciences (NCATS), 2010):
# The other results are listed elsewhere or left out. These are further read-outs of the screen, such as a control signal, another cell line or another target. No call is given for them. The list favours compounds with an active or inconclusive main result. The note in brackets gives the kind of curve behind each potency; many fits are weak.
# Assay: qHTS Assay for Lipid Storage Modulators in Drosophila S3 Cells;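 as to cell number change: cells counted by Cell Tracker Red CMTPX staining in the red channel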
# Settings: BODIPY lipid droplet fluorescence, 18-24 h; for cell number change: measured here: cell count max response, cells fed with added oleic acid
# Summary of the method: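 Laser-scanning cytometry quantifies lipid droplet accumulation (500–530 nm total intensity; droplet/cell object ratio) in oleic acid-fed (400 uM added) Drosophila S3 cells treated with a concentration series. 20 uM Triacsin C defined 100% inhibition.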
# [1] = measured here: lipid fluorescence (Fed channel) AC50, cells fed with added oleic acid
# [2] = measured here: cell number channel AC50, cells fed with added oleic acid
Compound,cell number change,AC50 [1],AC50 [2]
CC(C)C(NC(N)=O)C(=O)NC1CCCCC1 (stereo not given),3.51%,,
O=C(Nc1ccc([N+](=O)[O-])cc1)c1nc[nH]c1C(=O)NC1CCCCC1,3.26%,"1.3 µM [rising, full curve]",
O=C(NC(Cc1c[nH]c2ccccc12)C(=O)O)/C(=C\c1ccc2c(c1)OCO2)NC(=O)c1ccccc1 (stereo not given),3.23%,"0.116 µM [falling, full curve, poor fit]",
N#Cc1c(-c2ccccc2Cl)noc1/C=C/Nc1ccc(C(=O)O)cc1,-6.71%,,
CCCCC(=O)Nc1ccc(NC(=S)NC(=O)c2cccs2)cc1OC,-40.5%,"29.1 µM [rising, partial curve, poor fit]","6.51 µM [falling, partial curve]"
COc1cc(OC)cc(-n2nnnc2SCC(=O)NCc2ccc3c(c2)OCO3)c1,23.1%,"3.66 µM [rising, partial curve]","0.00517 µM [rising, full curve, poor fit]"
CCc1ccc(NC2=CC(=O)C(=O)c3ccccc32)cc1,-49.8%,"11.6 µM [falling, partial curve]","14.6 µM [falling, partial curve]"
Cc1cccc(C(=O)NC(=S)Nc2ccc(S(=O)(=O)N(C)c3ccccc3)cc2)c1,,"0.731 µM [rising, full curve, poor fit]","2.91 µM [rising, partial curve]"
O=C(NC1CCCCC1)C(c1ccccc1)N1CCc2ccccc21 (stereo not given),17.5%,"6.51 µM [rising, single point]",
COCCCNC(=O)c1cn(CC(C)C)c(=O)c2c1c1ccccc1n2C,,"29.1 µM [falling, single point]","6.51 µM [rising, single point]"
Cc1c(N/N=C(\C#N)C(=O)c2ccccc2)c(=O)n(-c2ccccc2)n1C,-4.05%,,
C/C(=N/OC(=O)c1ccc(Br)cc1)c1ccc(C)cc1,-16.2%,"0.58 µM [rising, single point]",
CCCNS(=O)(=O)c1ccc(CCC(=O)Nc2ccc3c(c2)OCCO3)cc1,20.3%,"0.461 µM [rising, full curve, poor fit]",
S=c1[nH]nc(CCc2ccccc2)n1-c1ccccc1,1.57%,"25.9 µM [falling, partial curve, poor fit]",
O=C(CSc1nc2ccccc2c(=O)n1CCCN1CCOCC1)c1c[nH]c2ccccc12,,"6.51 µM [falling, single point]","6.51 µM [falling, single point]"

# 3 consecutive entries out of the list so far, quoted:
Compound,cell number change,AC50 [1],AC50 [2]
CCCNS(=O)(=O)c1ccc(CCC(=O)Nc2ccc3c(c2)OCCO3)cc1,20.3%,"0.461 µM [rising, full curve, poor fit]",
S=c1[nH]nc(CCc2ccccc2)n1-c1ccccc1,1.57%,"25.9 µM [falling, partial curve, poor fit]",
O=C(CSc1nc2ccccc2c(=O)n1CCCN1CCOCC1)c1c[nH]c2ccccc12,,"6.51 µM [falling, single point]","6.51 µM [falling, single point]"
